Results deposited as PubChem BioAssay AID1259272 (Sanger Institute, 2017)
Here is a random part of 794 reagents. 7 of all reagents (0.88%) were called active. 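Essential calls reflect knock-down without drug only, not synergy with drugs; drug exposure length not given.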 A number with no mark means an inactive call. Not all columns of the deposit are shown. Not given: the amount of reagent, the time to read-out.

Assay: 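Kinome-wide siRNA search for genes whose silencing boosts targeted drug effects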 (primary screen)
System: SW1116 human colorectal cancer cells
Knock-down reagent: siRNA pool against human genes
Treatment: anchor drugs BYL719 (1 µM), cetuximab (5 µg/ml) or trametinib (10 nM), or DMSO vehicle; exposure length not given
Read-out: 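Cell survival as a fraction of wells given a non-targeting pool, averaged over replicates; robust z-score without drug; synergy score for each of BYL719, cetuximab and trametinib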
Reading the numbers: viability z-score, no drug: higher = more cells remaining; strongly negative means essential gene
Call rule: 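a robust z-score under -3 with siRNA and no drug marks the gene essential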
Meaning of the calls: active = essential (knock-down alone); inactive = no change

| Target gene | viability z-score, no drug |
| --- | --- |
| STK32B (serine/threonine kinase 32B) | 0.753 |
| PRKACB (protein kinase cAMP-activated catalytic subunit beta) | 0.842 |
| STRADB (STE20 related adaptor beta) | -0.507 |
| TNK2 (tyrosine kinase non receptor 2) | 0.00218 |
| FGFRL1 (fibroblast growth factor receptor like 1) | 0.842 |
| GNE | 0.842 |
| NME5 (NME/NM23 family member 5) | 0.352 |
| GALK1 (galactokinase 1) | -0.459 |
| RBKS (ribokinase) | 0.842 |
| DDR1 (discoidin domain receptor tyrosine kinase 1) | 0.842 |
| STK25 (serine/threonine kinase 25) | -0.833 |
| BRD3 (bromodomain containing 3) | 0.275 |
| CDKN1A (cyclin dependent kinase inhibitor 1A) | 0.487 |
| DGKK (diacylglycerol kinase kappa) | 0.842 |
| PDIK1L (PDLIM1 interacting kinase 1 like) | 0.613 |
| CALM3 (calmodulin 3) | -1.03 |
| PGK1 (phosphoglycerate kinase 1) | 0.842 |
| MPP1 (MAGUK p55 scaffold protein 1) | 0.212 |
| CIT (citron rho-interacting serine/threonine kinase) | -2.46 |
| CDK5R1 (cyclin dependent kinase 5 regulatory subunit 1) | 0.842 |
| PI4KA (phosphatidylinositol 4-kinase alpha) | 0.842 |
| ADCK5 (aarF domain containing kinase 5) | 0.842 |

6 consecutive entries from above, for reference:
| Target gene | viability z-score, no drug |
| --- | --- |
| CALM3 (calmodulin 3) | -1.03 |
| PGK1 (phosphoglycerate kinase 1) | 0.842 |
| MPP1 (MAGUK p55 scaffold protein 1) | 0.212 |
| CIT (citron rho-interacting serine/threonine kinase) | -2.46 |
| CDK5R1 (cyclin dependent kinase 5 regulatory subunit 1) | 0.842 |
| PI4KA (phosphatidylinositol 4-kinase alpha) | 0.842 |

The list goes on.
| Target gene | viability z-score, no drug |
| --- | --- |
| DAPK1 (death associated protein kinase 1) | -0.419 |
| MARK1 (microtubule affinity regulating kinase 1) | 0.842 |
| APC (APC regulator of Wnt signaling pathway) | -1.12 |
| GRK2 (G protein-coupled receptor kinase 2) | 0.842 |
| CAMKV (CaM kinase like vesicle associated) | -0.255 |
| RPS6KA3 (ribosomal protein S6 kinase A3) | -0.639 |
| PINK1 (PTEN induced kinase 1) | 0.658 |
| DBF4 (DBF4-CDC7 kinase regulatory subunit) | 0.0933 |
| RPS6KC1 (ribosomal protein S6 kinase C1) | 0.783 |
| TTBK2 (tau tubulin kinase 2) | 0.517 |
| CHUK | 0.842 |
| SGK2 (serum/glucocorticoid regulated kinase 2) | -0.288 |
